These results are taken from publication doi:10.1101/744672.

Amino acid sequences for entries named in this document (tags omitted). A change or cut given only in a name is not applied to a line headed by its entry.
UniProt Q96CV9, whole entry: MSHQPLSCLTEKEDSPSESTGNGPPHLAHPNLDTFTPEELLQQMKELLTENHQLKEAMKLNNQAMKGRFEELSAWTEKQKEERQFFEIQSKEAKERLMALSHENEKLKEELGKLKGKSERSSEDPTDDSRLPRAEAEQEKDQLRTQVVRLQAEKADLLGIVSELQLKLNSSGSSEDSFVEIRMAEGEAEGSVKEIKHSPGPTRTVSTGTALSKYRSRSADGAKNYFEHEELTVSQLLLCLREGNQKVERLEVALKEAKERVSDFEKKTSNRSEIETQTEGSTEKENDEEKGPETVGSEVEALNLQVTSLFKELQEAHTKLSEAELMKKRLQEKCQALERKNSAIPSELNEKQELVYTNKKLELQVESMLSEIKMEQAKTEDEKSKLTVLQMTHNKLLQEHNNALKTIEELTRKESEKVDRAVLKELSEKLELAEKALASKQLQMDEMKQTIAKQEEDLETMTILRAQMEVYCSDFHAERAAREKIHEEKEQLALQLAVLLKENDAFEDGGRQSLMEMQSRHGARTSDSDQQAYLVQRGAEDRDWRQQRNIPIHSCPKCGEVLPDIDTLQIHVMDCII
UniProt Q96EP0, whole entry: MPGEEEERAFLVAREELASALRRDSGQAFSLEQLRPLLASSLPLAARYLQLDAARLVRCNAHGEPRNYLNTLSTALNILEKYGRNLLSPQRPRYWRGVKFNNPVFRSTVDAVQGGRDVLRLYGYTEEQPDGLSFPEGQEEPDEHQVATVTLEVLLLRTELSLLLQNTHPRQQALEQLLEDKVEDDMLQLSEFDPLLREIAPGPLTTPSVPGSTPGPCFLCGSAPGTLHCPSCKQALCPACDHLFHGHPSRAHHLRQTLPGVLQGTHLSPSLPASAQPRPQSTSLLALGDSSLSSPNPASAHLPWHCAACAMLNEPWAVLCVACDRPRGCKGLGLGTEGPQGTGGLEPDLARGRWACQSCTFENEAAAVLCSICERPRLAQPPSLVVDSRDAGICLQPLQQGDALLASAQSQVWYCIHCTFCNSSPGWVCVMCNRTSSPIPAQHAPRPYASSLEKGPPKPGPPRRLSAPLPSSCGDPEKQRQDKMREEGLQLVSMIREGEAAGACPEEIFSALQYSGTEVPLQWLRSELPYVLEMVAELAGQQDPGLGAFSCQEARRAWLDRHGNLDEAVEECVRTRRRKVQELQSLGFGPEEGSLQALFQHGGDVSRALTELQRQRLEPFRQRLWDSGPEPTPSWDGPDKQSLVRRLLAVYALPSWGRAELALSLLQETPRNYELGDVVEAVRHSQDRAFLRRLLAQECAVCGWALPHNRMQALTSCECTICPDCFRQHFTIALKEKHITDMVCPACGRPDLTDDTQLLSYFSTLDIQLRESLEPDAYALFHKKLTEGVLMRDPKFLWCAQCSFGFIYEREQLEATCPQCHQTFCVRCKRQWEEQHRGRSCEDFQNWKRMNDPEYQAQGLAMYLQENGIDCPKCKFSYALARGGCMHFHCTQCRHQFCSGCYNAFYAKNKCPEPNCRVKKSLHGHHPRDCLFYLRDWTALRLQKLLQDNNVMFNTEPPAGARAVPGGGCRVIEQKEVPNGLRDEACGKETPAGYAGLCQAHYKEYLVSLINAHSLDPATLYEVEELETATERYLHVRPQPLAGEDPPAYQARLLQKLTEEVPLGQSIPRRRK

No constants are given. Whether binding was seen depends on the method and setting. In cells and extracts the contact can be indirect. Some results given as binding are weak or reduced against the parent protein; the word gives no strength.

Holding throughout (assay): co-IP
The target of assay [1] is GFP-OPTN E478G (UniProt Q96CV9).
Assay [2] has as its target GFP-OPTN E50K (UniProt Q96CV9).
For assay [3], the target named is GFP-OPTN wild-type (UniProt Q96CV9).

As to HA-HOIP (from UniProt Q96EP0 1-1072), the binding result in assay [1] was “no binding”; in assay [2], “binds”; in assay [3], “binds”.
